Assay results published in the supplement of paper PMC12823440, “Inhibitors supercharge kinase turnover through native proteolytic circuits” (Nature, 2025).
Some of the results follow. Hit calls seldom repeat between salt and free forms of one compound.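 In K562 cells expressing nanoluciferase-fused kinases, luminescence was recorded at 4 h intervals between 2 and 18 h, normalized as percent of control with DMSO at 100% and a positive control at 0%. A significant (2 sigma) signal drop marks a time point as decreased. The authors' rule for a hit is not shown and takes in more than the number of time points.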

Protein sequences, listed by entry. Tags and fused reporters are not part of them. Lines headed by an entry give the natural chain unless they say otherwise; changes in a name come on top.
UniProt Q06187: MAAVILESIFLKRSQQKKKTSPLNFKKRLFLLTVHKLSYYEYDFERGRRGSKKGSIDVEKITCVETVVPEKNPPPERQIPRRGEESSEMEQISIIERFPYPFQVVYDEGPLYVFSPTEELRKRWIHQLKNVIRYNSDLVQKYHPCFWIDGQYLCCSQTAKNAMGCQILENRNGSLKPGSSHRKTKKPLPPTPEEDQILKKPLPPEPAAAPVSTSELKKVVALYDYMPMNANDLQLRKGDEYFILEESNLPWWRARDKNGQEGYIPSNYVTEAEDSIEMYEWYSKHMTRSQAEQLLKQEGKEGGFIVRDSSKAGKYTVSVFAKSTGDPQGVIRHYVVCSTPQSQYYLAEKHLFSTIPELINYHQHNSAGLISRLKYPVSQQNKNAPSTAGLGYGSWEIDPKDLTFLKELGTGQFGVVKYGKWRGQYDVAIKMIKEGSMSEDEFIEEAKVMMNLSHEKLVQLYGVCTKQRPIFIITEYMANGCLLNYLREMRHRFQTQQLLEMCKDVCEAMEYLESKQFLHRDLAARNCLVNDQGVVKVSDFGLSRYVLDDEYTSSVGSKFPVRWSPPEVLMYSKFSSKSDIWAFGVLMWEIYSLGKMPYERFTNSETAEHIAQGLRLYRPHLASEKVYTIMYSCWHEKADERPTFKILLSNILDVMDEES
UniProt Q9UQM7, whole entry: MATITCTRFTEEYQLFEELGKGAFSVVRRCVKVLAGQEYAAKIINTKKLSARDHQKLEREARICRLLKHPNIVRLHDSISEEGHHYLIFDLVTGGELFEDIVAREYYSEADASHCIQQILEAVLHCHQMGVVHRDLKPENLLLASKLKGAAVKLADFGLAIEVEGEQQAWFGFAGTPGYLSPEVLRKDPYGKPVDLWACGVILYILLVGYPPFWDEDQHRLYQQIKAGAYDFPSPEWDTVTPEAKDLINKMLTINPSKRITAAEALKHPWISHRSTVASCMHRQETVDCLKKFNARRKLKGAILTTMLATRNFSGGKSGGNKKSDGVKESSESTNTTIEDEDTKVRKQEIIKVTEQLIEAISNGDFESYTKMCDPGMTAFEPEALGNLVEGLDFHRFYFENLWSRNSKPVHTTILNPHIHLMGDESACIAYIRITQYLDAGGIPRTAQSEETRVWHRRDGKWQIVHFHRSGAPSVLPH
UniProt Q00526: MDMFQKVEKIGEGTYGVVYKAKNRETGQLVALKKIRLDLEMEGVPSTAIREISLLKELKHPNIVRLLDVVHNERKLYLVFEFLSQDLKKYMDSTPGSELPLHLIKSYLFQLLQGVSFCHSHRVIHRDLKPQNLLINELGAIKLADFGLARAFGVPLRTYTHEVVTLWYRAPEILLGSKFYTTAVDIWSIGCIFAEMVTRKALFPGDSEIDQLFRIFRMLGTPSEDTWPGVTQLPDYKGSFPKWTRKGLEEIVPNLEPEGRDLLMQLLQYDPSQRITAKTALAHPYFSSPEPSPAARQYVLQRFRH
UniProt Q00534, whole entry: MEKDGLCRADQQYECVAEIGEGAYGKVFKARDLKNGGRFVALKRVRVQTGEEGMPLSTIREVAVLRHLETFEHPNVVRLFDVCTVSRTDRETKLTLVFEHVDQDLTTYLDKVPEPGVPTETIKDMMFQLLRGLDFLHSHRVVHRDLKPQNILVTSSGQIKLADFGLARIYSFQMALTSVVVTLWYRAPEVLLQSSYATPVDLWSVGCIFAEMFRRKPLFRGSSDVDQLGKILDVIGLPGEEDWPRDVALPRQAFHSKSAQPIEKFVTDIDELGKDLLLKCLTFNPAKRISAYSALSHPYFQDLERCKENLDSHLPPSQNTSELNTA
UniProt P50613: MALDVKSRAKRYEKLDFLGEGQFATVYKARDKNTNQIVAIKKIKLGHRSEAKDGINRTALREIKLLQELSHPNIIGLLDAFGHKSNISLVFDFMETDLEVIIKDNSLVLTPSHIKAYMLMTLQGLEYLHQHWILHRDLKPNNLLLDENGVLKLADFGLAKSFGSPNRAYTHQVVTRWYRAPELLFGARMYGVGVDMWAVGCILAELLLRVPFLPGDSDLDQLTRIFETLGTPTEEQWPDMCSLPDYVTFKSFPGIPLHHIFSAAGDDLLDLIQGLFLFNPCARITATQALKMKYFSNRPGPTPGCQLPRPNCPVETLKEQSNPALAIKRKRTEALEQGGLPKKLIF
UniProt P50750, whole entry: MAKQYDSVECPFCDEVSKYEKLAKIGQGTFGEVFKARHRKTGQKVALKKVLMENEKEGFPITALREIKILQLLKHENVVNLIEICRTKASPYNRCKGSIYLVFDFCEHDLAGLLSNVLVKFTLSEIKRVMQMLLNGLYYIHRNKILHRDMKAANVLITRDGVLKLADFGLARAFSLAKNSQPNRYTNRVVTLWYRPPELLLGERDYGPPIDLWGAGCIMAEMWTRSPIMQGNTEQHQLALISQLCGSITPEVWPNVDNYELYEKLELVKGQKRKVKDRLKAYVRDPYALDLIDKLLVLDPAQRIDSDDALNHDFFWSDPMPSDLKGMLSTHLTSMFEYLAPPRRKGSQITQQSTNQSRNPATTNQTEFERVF
UniProt O96017, whole entry: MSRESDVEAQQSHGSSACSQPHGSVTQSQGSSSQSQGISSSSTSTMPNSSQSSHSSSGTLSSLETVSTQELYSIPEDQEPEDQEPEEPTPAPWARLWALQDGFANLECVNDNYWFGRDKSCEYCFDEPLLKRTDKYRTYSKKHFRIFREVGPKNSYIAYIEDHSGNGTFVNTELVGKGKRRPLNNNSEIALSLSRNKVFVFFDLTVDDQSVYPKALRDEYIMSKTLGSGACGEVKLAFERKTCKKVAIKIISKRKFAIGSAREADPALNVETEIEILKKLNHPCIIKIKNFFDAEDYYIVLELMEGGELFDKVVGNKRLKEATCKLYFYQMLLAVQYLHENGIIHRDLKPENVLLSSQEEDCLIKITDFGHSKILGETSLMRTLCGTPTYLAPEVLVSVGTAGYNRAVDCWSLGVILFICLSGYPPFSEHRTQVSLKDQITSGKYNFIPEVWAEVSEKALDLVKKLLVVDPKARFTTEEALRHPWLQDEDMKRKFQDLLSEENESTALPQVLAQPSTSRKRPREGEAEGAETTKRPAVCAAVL
UniProt P07333, whole entry: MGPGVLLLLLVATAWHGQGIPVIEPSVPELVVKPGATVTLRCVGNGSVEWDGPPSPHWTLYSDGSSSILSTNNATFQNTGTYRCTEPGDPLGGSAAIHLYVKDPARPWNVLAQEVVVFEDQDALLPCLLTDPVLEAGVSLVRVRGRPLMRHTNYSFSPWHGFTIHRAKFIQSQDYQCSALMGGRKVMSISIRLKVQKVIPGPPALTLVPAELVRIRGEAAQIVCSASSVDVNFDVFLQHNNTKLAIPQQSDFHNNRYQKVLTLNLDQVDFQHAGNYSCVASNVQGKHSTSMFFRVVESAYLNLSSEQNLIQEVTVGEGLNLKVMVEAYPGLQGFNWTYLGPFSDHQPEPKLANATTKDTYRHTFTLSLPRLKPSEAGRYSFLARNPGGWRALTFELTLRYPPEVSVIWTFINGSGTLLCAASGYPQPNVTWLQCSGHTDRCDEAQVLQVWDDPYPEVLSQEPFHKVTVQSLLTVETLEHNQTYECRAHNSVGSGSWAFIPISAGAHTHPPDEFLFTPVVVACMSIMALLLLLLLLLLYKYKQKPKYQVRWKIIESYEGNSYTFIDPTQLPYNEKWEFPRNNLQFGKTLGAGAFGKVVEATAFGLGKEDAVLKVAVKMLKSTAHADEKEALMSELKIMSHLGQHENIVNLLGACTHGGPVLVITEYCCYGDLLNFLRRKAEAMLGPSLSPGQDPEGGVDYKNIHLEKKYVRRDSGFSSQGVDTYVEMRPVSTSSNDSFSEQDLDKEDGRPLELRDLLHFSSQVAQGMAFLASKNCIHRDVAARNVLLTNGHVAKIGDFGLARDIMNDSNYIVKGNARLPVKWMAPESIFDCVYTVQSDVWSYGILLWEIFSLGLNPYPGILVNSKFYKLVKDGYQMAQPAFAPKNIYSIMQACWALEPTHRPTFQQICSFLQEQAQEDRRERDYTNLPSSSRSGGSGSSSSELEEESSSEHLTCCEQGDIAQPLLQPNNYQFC
UniProt P41240: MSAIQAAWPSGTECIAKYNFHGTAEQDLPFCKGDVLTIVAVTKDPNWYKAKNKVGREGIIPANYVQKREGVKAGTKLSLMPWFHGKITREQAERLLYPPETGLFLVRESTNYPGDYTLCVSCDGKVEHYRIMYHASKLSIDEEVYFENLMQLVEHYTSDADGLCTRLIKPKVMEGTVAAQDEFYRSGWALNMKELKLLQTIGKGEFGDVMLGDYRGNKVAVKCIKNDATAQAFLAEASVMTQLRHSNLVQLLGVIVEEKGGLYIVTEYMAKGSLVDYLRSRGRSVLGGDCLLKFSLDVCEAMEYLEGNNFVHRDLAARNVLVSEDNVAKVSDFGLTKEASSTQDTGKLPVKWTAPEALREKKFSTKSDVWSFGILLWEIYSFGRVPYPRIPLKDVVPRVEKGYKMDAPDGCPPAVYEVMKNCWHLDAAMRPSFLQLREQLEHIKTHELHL
UniProt Q08345: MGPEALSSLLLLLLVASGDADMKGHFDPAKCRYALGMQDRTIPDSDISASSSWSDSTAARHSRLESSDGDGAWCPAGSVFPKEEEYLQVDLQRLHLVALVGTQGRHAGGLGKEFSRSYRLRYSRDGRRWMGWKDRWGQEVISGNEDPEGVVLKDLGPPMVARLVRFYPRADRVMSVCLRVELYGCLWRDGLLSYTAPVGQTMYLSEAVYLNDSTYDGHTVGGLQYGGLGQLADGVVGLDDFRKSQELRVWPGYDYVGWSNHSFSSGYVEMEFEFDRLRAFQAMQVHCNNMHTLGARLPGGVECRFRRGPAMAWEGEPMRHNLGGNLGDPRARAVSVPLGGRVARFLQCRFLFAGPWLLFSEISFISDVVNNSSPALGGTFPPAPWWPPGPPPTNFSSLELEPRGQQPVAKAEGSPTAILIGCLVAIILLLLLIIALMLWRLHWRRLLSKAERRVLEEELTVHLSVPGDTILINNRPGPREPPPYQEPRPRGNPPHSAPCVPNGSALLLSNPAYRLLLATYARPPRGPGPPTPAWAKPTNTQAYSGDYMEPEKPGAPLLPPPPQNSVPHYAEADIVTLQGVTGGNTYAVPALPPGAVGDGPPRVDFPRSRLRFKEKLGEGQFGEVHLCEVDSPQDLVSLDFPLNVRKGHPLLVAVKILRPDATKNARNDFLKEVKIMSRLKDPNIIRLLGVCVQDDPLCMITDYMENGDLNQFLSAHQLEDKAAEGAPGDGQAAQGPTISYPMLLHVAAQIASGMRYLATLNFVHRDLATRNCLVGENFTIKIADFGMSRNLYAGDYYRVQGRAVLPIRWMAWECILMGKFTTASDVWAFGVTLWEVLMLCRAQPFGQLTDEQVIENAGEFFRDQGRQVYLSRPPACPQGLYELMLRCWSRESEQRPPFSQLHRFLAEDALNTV
UniProt Q9Y463, whole entry, looked up: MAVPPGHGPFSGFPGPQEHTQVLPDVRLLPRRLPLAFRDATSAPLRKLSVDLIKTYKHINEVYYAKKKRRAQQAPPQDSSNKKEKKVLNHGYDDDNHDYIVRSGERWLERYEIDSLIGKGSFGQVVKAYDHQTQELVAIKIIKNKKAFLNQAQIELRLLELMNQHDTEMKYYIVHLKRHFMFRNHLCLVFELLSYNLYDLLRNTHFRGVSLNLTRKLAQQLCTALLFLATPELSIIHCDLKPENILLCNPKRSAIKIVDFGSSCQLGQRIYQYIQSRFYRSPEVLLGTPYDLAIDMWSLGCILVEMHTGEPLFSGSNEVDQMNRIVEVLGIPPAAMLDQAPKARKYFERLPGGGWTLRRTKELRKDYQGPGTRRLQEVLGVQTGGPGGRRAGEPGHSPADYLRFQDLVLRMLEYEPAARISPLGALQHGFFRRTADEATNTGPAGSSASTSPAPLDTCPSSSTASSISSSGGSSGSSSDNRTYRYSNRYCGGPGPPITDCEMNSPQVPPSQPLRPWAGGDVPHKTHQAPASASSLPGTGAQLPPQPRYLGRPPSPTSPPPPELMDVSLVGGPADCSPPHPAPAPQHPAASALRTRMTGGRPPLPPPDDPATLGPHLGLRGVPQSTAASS
UniProt Q92630: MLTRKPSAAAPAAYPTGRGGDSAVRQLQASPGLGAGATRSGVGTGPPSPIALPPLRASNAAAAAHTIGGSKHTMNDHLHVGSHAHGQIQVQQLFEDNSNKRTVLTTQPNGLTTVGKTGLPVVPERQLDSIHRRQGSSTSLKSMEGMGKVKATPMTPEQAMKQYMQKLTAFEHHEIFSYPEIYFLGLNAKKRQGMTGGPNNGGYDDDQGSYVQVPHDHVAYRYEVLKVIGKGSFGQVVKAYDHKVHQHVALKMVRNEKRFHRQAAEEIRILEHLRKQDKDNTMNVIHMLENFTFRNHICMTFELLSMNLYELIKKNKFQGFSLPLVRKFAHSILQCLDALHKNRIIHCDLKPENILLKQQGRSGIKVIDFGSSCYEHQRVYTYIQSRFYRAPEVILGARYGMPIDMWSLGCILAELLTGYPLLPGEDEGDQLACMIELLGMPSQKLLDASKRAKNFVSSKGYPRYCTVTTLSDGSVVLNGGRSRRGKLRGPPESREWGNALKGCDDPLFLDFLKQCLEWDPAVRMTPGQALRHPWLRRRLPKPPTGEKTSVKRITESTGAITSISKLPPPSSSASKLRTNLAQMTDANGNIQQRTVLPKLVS

Legend:
Assay in all cases: kinase-Nluc reporter destabilization hit call (1 = scored as downregulated) (binary); higher = compound decreases kinase abundance
Settings in all cases: K562; 2-18 h
BRAF_V600E = test system: BRAF_V600E
BTK = BTK (UniProt Q06187)
CAMK2A = CAMK2A (UniProt Q9UQM7)
CAMK2G = CAMK2G (UniProt Q13555)
CDK10 = CDK10 (UniProt Q15131)
CDK2 = CDK2 (UniProt P24941)
CDK3 = CDK3 (UniProt Q00526)
CDK4 = CDK4 (UniProt P11802)
CDK5 = CDK5 (UniProt Q00535)
CDK6 = CDK6 (UniProt Q00534)
CDK7 = CDK7 (UniProt P50613)
CDK9 = CDK9 (UniProt P50750)
CHEK2 = CHEK2 (UniProt O96017)
CSF1R = CSF1R (UniProt P07333)
CSK = CSK (UniProt P41240)
CSNK1A1 = CSNK1A1 (UniProt P48729)
CSNK1D = CSNK1D (UniProt P48730)
DDR1 = DDR1 (UniProt Q08345)
DYRK1B = DYRK1B (UniProt Q9Y463)
DYRK2 = DYRK2 (UniProt Q92630)

Measured: kinase-Nluc reporter destabilization hit call

O=C1NC(=O)/C(=C/c2ccc3nccnc3c2)S1 (10 µM)
inactive: BRAF_V600E 0 | BTK 0 | CAMK2A 0 | CAMK2G 0 | CDK10 = 0 | CDK2 = 0 | CDK3 = 0 | CDK4 = 0 | CDK5 = 0 | CDK6 = 0 | CDK7 = 0 | CDK9 = 0 | CHEK2 = 0 | CSF1R 0 | CSK 0 | CSNK1A1 = 0 | CSNK1D 0 | DDR1 = 0 | DYRK1B 0 | DYRK2 = 0

COc1cc(Nc2ncc(F)c(Nc3ccc4c(n3)N(COP(=O)(O)O)C(=O)C(C)(C)O4)n2)cc(OC)c1OC [Fostamatinib (disodium hexahydrate)] (10 µM)
inactive: BRAF_V600E 0 | BTK 0 | CAMK2A 0 | CAMK2G 0 | CDK10 = 0 | CDK2 = 0 | CDK3 = 0 | CDK4 = 0 | CDK5 = 0 | CDK6 = 0 | CDK7 = 0 | CDK9 = 0 | CHEK2 = 0 | CSF1R 0 | CSK 0 | CSNK1A1 = 0 | CSNK1D 0 | DDR1 = 0 | DYRK1B 0 | DYRK2 = 0

CC(=O)c1c(C)cc2cccc(O)c2c1O [Nepodin] (10 µM)
inactive: BRAF_V600E 0 | BTK 0 | CAMK2A 0 | CAMK2G 0 | CDK10 = 0 | CDK2 = 0 | CDK3 = 0 | CDK4 = 0 | CDK5 = 0 | CDK6 = 0 | CDK7 = 0 | CDK9 = 0 | CHEK2 = 0 | CSF1R 0 | CSK 0 | CSNK1A1 = 0 | CSNK1D 0 | DDR1 = 0 | DYRK1B 0 | DYRK2 = 0

Cc1ccc(C(=O)Nc2ccc(Oc3cc4cnn(C)c4cc3-c3cn[nH]c3)c(F)c2)c(=O)n1-c1ccc(F)cc1 [Merestinib] (2.5 µM)
inactive: BRAF_V600E 0 | BTK 0 | CAMK2A 0 | CAMK2G 0 | CDK10 = 0 | CDK2 = 0 | CDK3 = 0 | CDK4 = 0 | CDK5 = 0 | CDK6 = 0 | CDK7 = 0 | CDK9 = 0 | CHEK2 = 0 | CSF1R 0 | CSK 0 | CSNK1A1 = 0 | CSNK1D 0 | DDR1 = 0 | DYRK1B 0 | DYRK2 = 0

Cc1c(NC(=O)c2cccn(-c3ccc(F)cc3)c2=O)ccc(Oc2ccnc(NC(=O)C3CC3)c2)c1C (2 µM)
inactive: BRAF_V600E 0 | BTK 0 | CAMK2A 0 | CAMK2G 0 | CDK10 = 0 | CDK2 = 0 | CDK3 = 0 | CDK4 = 0 | CDK5 = 0 | CDK6 = 0 | CDK7 = 0 | CDK9 = 0 | CHEK2 = 0 | CSF1R 0 | CSK 0 | CSNK1A1 = 0 | CSNK1D 0 | DDR1 = 0 | DYRK1B 0 | DYRK2 = 0

CC(C)(O)CNc1ncc(-c2ccnc(Nc3ccnc(Cl)c3)n2)c(CC2CC2)n1 (2.5 µM)
inactive: BRAF_V600E 0 | BTK 0 | CAMK2A 0 | CAMK2G 0 | CDK10 = 0 | CDK2 = 0 | CDK3 = 0 | CDK4 = 0 | CDK5 = 0 | CDK6 = 0 | CDK7 = 0 | CDK9 = 0 | CHEK2 = 0 | CSF1R 0 | CSK 0 | CSNK1A1 = 0 | CSNK1D 0 | DDR1 = 0 | DYRK1B 0 | DYRK2 = 0

Cc1cc(O)c2c(c1)C(=O)c1cc(O)cc(O)c1C2=O [Emodin] (10 µM)
inactive: BRAF_V600E 0 | BTK 0 | CAMK2A 0 | CAMK2G 0 | CDK10 = 0 | CDK2 = 0 | CDK3 = 0 | CDK4 = 0 | CDK5 = 0 | CDK6 = 0 | CDK7 = 0 | CDK9 = 0 | CHEK2 = 0 | CSF1R 0 | CSK 0 | CSNK1A1 = 0 | CSNK1D 0 | DDR1 = 0 | DYRK1B 0 | DYRK2 = 0

Cc1cc(CN2CCN(c3c(Br)cnc4nc(-c5ccc(N6CCN(C)CC6)cc5)[nH]c34)CC2)no1 (2.5 µM)
inactive: BRAF_V600E 0 | BTK 0 | CAMK2A 0 | CAMK2G 0 | CDK10 = 0 | CDK2 = 0 | CDK3 = 0 | CDK4 = 0 | CDK5 = 0 | CDK6 = 0 | CDK7 = 0 | CDK9 = 0 | CHEK2 = 0 | CSF1R 0 | CSK 0 | CSNK1A1 = 0 | CSNK1D 0 | DDR1 = 0 | DYRK1B 0 | DYRK2 = 0

CCc1c(C(=O)NNC(=O)C(O)c2cc(F)cc(F)c2)ccc(O)c1C (stereo not given) (10 µM)
inactive: BRAF_V600E 0 | BTK 0 | CAMK2A 0 | CAMK2G 0 | CDK10 = 0 | CDK2 = 0 | CDK3 = 0 | CDK4 = 0 | CDK5 = 0 | CDK6 = 0 | CDK7 = 0 | CDK9 = 0 | CHEK2 = 0 | CSF1R 0 | CSK 0 | CSNK1A1 = 0 | CSNK1D 0 | DDR1 = 0 | DYRK1B 0 | DYRK2 = 0

Part of the list above in order of heavy-atom count, falling:
Cc1cc(CN2CCN(c3c(Br)cnc4nc(-c5ccc(N6CCN(C)CC6)cc5)[nH]c34)CC2)no1 (2.5 µM)
inactive: BRAF_V600E 0 | BTK 0 | CAMK2A 0 | CAMK2G 0 | CDK10 = 0 | CDK2 = 0 | CDK3 = 0 | CDK4 = 0 | CDK5 = 0 | CDK6 = 0 | CDK7 = 0 | CDK9 = 0 | CHEK2 = 0 | CSF1R 0 | CSK 0 | CSNK1A1 = 0 | CSNK1D 0 | DDR1 = 0 | DYRK1B 0 | DYRK2 = 0

CCc1c(C(=O)NNC(=O)C(O)c2cc(F)cc(F)c2)ccc(O)c1C (stereo not given) (10 µM)
inactive: BRAF_V600E 0 | BTK 0 | CAMK2A 0 | CAMK2G 0 | CDK10 = 0 | CDK2 = 0 | CDK3 = 0 | CDK4 = 0 | CDK5 = 0 | CDK6 = 0 | CDK7 = 0 | CDK9 = 0 | CHEK2 = 0 | CSF1R 0 | CSK 0 | CSNK1A1 = 0 | CSNK1D 0 | DDR1 = 0 | DYRK1B 0 | DYRK2 = 0

Cc1cc(O)c2c(c1)C(=O)c1cc(O)cc(O)c1C2=O [Emodin] (10 µM)
inactive: BRAF_V600E 0 | BTK 0 | CAMK2A 0 | CAMK2G 0 | CDK10 = 0 | CDK2 = 0 | CDK3 = 0 | CDK4 = 0 | CDK5 = 0 | CDK6 = 0 | CDK7 = 0 | CDK9 = 0 | CHEK2 = 0 | CSF1R 0 | CSK 0 | CSNK1A1 = 0 | CSNK1D 0 | DDR1 = 0 | DYRK1B 0 | DYRK2 = 0

Next part:

C[C@@H]1COCCN1c1cc(C2([S@@](C)(=N)=O)CC2)nc(-c2ccnc3[nH]ccc23)n1 [(S)-Ceralasertib] (10 µM)
inactive: BRAF_V600E 0 | BTK 0 | CAMK2A 0 | CAMK2G 0 | CDK10 = 0 | CDK2 = 0 | CDK3 = 0 | CDK4 = 0 | CDK5 = 0 | CDK6 = 0 | CDK7 = 0 | CDK9 = 0 | CHEK2 = 0 | CSF1R 0 | CSK 0 | CSNK1A1 = 0 | CSNK1D 0 | DDR1 = 0 | DYRK1B 0 | DYRK2 = 0

O=S(=O)(NCCCN1c2ccccc2CCc2ccc(Cl)cc21)c1ccc(OC(F)(F)F)cc1 (2.5 µM)
inactive: BRAF_V600E 0 | BTK 0 | CAMK2A 0 | CAMK2G 0 | CDK10 = 0 | CDK2 = 0 | CDK3 = 0 | CDK4 = 0 | CDK5 = 0 | CDK6 = 0 | CDK7 = 0 | CDK9 = 0 | CHEK2 = 0 | CSF1R 0 | CSK 0 | CSNK1A1 = 0 | CSNK1D 0 | DDR1 = 0 | DYRK1B 0 | DYRK2 = 0

COc1cc(Nc2ncc(F)c(Nc3ccc4c(n3)NC(=O)C(C)(C)O4)n2)cc(OC)c1OC [R406 (free base)] (10 µM)
inactive: BRAF_V600E 0 | BTK 0 | CAMK2A 0 | CAMK2G 0 | CDK10 = 0 | CDK2 = 0 | CDK3 = 0 | CDK4 = 0 | CDK5 = 0 | CDK6 = 0 | CDK7 = 0 | CDK9 = 0 | CHEK2 = 0 | CSF1R 0 | CSK 0 | CSNK1A1 = 0 | CSNK1D 0 | DDR1 = 0 | DYRK1B 0 | DYRK2 = 0

CCCS(=O)(=O)Nc1ccc(F)c(C(=O)c2c[nH]c3ncc(-c4ccc(Cl)cc4)cc23)c1F [Vemurafenib] (10 µM)
inactive: BRAF_V600E 0 | BTK 0 | CAMK2A 0 | CAMK2G 0 | CDK10 = 0 | CDK2 = 0 | CDK3 = 0 | CDK4 = 0 | CDK5 = 0 | CDK6 = 0 | CDK7 = 0 | CDK9 = 0 | CHEK2 = 0 | CSF1R 0 | CSK 0 | CSNK1A1 = 0 | CSNK1D 0 | DDR1 = 0 | DYRK1B 0 | DYRK2 = 0

CC#CC(=O)Nc1ccc2ncnc(Nc3cccc(Br)c3)c2c1 (10 µM)
inactive: BRAF_V600E 0 | BTK 0 | CAMK2A 0 | CAMK2G 0 | CDK10 = 0 | CDK2 = 0 | CDK3 = 0 | CDK4 = 0 | CDK5 = 0 | CDK6 = 0 | CDK7 = 0 | CDK9 = 0 | CHEK2 = 0 | CSF1R 0 | CSK 0 | CSNK1A1 = 0 | CSNK1D 0 | DDR1 = 0 | DYRK1B 0 | DYRK2 = 0

COc1cc(OC2CCN(C)CC2)ccc1Nc1ncc2c(n1)n(C1CCCC1)c(=O)n2C (10 µM)
inactive: BRAF_V600E 0 | BTK 0 | CAMK2A 0 | CAMK2G 0 | CDK10 = 0 | CDK2 = 0 | CDK3 = 0 | CDK4 = 0 | CDK5 = 0 | CDK6 = 0 | CDK7 = 0 | CDK9 = 0 | CHEK2 = 0 | CSF1R 0 | CSK 0 | CSNK1A1 = 0 | CSNK1D 0 | DDR1 = 0 | DYRK1B 0 | DYRK2 = 0

CC[C@@H](Oc1nc(Oc2cc(C)cc(-c3cccc(CN)c3)c2)c(F)cc1F)C(=O)O (10 µM)
inactive: BRAF_V600E 0 | BTK 0 | CAMK2A 0 | CAMK2G 0 | CDK10 = 0 | CDK2 = 0 | CDK3 = 0 | CDK4 = 0 | CDK5 = 0 | CDK6 = 0 | CDK7 = 0 | CDK9 = 0 | CHEK2 = 0 | CSF1R 0 | CSK 0 | CSNK1A1 = 0 | CSNK1D 0 | DDR1 = 0 | DYRK1B 0 | DYRK2 = 0

CNc1nc(Nc2ccc(C(=O)N3CCOCC3)cc2OC)nc2[nH]cc(Cl)c12 (2.5 µM)
inactive: BRAF_V600E 0 | BTK 0 | CAMK2A 0 | CAMK2G 0 | CDK10 = 0 | CDK2 = 0 | CDK3 = 0 | CDK4 = 0 | CDK5 = 0 | CDK6 = 0 | CDK7 = 0 | CDK9 = 0 | CHEK2 = 0 | CSF1R 0 | CSK 0 | CSNK1A1 = 0 | CSNK1D 0 | DDR1 = 0 | DYRK1B 0 | DYRK2 = 0

O=C1Nc2ccc(C(=O)c3ccco3)cc2C1=Cc1cc(Cl)c(O)c(Cl)c1 (2.5 µM)
inactive: BRAF_V600E 0 | BTK 0 | CAMK2A 0 | CAMK2G 0 | CDK10 = 0 | CDK2 = 0 | CDK3 = 0 | CDK4 = 0 | CDK5 = 0 | CDK6 = 0 | CDK7 = 0 | CDK9 = 0 | CHEK2 = 0 | CSF1R 0 | CSK 0 | CSNK1A1 = 0 | CSNK1D 0 | DDR1 = 0 | DYRK1B 0 | DYRK2 = 0
